Our source for the binding values is paper PMC11148040.

The chains behind the UniProt entries cited, without tags or fusion partners.
UniProt A0A125YSP0: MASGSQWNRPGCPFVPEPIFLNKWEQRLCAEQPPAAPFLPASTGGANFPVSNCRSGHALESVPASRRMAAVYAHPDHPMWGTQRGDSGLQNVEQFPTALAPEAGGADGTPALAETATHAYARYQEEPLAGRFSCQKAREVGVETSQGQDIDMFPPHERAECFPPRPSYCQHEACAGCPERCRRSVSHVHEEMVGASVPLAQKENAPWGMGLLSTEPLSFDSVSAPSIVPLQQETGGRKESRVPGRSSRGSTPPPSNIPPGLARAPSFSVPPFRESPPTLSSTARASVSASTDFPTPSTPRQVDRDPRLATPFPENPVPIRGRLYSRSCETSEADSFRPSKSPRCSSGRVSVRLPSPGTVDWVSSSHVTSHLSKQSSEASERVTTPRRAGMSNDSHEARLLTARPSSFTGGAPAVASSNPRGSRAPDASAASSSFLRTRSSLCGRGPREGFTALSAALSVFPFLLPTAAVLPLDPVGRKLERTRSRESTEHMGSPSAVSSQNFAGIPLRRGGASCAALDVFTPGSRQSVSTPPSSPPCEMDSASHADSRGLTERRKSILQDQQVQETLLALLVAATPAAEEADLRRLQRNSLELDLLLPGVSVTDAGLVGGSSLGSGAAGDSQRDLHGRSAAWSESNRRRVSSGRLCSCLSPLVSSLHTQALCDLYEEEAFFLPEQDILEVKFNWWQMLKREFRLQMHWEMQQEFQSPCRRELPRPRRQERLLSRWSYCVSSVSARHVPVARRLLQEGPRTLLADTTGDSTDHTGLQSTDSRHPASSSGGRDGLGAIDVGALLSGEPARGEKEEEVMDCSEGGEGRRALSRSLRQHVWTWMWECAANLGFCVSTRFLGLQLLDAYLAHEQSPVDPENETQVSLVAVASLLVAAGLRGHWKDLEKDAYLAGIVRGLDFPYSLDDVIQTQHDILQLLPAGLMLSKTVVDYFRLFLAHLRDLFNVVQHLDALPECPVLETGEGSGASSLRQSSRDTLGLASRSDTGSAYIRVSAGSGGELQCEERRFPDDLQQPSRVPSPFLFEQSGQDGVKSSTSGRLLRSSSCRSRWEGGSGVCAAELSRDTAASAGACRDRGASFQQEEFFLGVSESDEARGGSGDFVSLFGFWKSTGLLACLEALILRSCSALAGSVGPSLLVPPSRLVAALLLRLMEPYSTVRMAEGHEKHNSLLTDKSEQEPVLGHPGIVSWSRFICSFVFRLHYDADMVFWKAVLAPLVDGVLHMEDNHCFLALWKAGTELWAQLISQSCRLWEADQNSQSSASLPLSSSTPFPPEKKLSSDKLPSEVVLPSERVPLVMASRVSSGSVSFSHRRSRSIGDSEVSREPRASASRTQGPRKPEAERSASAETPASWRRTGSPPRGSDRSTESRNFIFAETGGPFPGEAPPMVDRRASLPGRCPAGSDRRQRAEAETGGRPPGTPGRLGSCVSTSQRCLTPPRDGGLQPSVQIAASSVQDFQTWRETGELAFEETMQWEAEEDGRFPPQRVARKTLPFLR
UniProt A0A125YYV7: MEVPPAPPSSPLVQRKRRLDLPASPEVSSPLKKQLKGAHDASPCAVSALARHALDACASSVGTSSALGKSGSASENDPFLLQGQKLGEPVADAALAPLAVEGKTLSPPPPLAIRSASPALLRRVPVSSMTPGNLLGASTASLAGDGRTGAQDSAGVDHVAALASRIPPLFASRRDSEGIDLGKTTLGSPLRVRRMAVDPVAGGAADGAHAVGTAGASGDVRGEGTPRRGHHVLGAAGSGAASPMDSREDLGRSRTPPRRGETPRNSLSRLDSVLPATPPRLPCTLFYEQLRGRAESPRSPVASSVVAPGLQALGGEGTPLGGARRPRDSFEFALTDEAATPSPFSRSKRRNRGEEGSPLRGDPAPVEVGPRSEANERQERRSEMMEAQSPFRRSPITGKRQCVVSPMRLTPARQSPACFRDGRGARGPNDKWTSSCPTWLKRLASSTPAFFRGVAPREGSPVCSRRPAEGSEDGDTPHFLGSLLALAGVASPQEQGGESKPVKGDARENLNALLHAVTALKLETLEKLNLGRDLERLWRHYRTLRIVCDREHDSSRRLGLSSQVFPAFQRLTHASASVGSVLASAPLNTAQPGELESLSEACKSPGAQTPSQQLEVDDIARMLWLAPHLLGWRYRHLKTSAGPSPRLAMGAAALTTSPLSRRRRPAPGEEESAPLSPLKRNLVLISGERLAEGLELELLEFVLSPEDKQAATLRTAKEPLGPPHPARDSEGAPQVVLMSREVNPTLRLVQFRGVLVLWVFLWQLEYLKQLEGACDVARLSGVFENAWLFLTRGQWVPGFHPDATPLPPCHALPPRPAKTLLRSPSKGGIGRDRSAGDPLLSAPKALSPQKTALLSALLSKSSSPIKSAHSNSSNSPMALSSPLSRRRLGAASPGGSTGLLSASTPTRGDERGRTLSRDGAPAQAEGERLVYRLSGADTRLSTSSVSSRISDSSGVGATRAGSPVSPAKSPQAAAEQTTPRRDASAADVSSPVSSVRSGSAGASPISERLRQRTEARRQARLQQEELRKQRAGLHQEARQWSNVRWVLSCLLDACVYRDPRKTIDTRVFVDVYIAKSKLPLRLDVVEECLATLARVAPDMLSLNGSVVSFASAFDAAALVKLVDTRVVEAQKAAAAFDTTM

These are yes or no findings as the source states them, for the method shown. In cells and extracts the contact can be indirect. These calls come from enrichment with a bait or labelling near it, and not all partners need be listed.

The target in assay [1] is TGME49_247040^myc (Toxoplasma gondii). The assay can be described thus: affinity purification with mass spectrometry; TGME49_247040^myc (TgiRD1^myc) complexes isolated on α-myc magnetic beads from extracted proteins of 10^9 tachyzoites, parental strain as control; two biological replicates; SAINT analysis.
Assay [2] addresses ^HATgCyc4 (Toxoplasma gondii). As to the kind of experiment: affinity purification with mass spectrometry; ^HATgCyc4 complexes immunoisolated on α-HA magnetic beads from extracted proteins (soluble fraction) of 10^9 tachyzoites, parental strain as control; SAINT analysis of spectral counts.

As for “TgCyc4 (TGME49_249880) (from UniProt A0A125YSP0 1-1500)”, the binding entry in assay [1] is given as “binds weakly”.

“TgiRD1 (TGME49_247040) (from UniProt A0A125YYV7 1-1140)”: in assay [2], the binding result is on record as “binds”.
